At least one structure is not confirmed: it was looked up by name or label, or the drawing left a doubt.
System: NMDA receptor
Assay: NMDA-induced thermal hyperalgesia (Hargreaves paw withdrawal latency) in rats with spinal subarachnoid transplants
Format: in vivo, rat
Conditions: 1.0 nmol NMDA i.t.; either transplant group; P>0.05
Protocol: Experimental procedures were approved and carried out in accordance the Guidelines of the Animal Care Committee, University of Illinois at Chicago. Male Sprague-Dawley rats weighing 325-375 g (Sasco, Madison, Wis.) at the beginning of the study were used as both graft donors and recipients. Graft recipients were anesthetized (Nembutal, 40 mg/kg, i.p., supplemented as necessary) and implanted with intrathecal catheters according to methods described by Yaksh and Rudy [T. L. Yaksh and T. A. Rudy, Physiol. Behav., 17:1031-1036 (1976)]. Catheters were made of PE10 tubing with a knot sealed with dental acrylic at 7.5 cm. […]
Animals were allowed to recover from surgical procedures for two weeks prior to commencement of behavioral testing. Responses to noxious and innocuous stimuli were determined using three tests sequentially: the Hargreaves model for thermal hyperalgesia [K. M. Hargreaves et al., Pain, 32:223-231 (1988)], the Randall-Selitto test for mechanical hyperalgesia, and von Frey thresholds for tactile allodynia. […] The apparatus automatically terminates at a scale reading of 25 (=1000 g). […]
The first group of animals was used in order to determine the time course and dose-responsiveness to intrathecally injected NMDA. […] Baseline responses to all three tests were assessed at the beginning of each test day prior to drug injection. […]

With `CN[C@H](CC(=O)O)C(=O)O` [NMDA, N-methyl-D-aspartate] the “response to noxious thermal stimulus versus saline injections” value was “not significantly different than saline injections”.

Source: patent US5935606A, “Reversing excitotoxic CNS damage by cellular implantation” (priority 1995, dated 1999)
